Measurements from US11541028B2, “Peptide pharmaceuticals for treatment of NASH and other disorders” (Mederis Diabetes LLC, priority 2018, dated 2023).
For at least one compound, name, drawing or mass did not settle the structure.

Chains of the proteins cited; added tags and fusions are not shown. Residues count along the entry.
UniProt P47871, 26-477: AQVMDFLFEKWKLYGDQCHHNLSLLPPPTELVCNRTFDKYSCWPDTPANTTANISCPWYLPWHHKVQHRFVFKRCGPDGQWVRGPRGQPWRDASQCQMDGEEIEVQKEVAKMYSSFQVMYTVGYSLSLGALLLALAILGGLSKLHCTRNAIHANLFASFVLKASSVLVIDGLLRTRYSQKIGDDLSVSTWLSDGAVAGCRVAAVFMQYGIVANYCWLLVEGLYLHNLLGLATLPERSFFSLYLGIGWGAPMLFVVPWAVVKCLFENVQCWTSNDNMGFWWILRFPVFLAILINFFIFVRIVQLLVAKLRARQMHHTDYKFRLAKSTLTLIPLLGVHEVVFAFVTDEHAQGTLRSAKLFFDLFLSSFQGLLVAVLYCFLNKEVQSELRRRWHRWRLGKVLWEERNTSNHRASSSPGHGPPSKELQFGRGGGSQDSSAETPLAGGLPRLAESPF
UniProt P43220, 24-463: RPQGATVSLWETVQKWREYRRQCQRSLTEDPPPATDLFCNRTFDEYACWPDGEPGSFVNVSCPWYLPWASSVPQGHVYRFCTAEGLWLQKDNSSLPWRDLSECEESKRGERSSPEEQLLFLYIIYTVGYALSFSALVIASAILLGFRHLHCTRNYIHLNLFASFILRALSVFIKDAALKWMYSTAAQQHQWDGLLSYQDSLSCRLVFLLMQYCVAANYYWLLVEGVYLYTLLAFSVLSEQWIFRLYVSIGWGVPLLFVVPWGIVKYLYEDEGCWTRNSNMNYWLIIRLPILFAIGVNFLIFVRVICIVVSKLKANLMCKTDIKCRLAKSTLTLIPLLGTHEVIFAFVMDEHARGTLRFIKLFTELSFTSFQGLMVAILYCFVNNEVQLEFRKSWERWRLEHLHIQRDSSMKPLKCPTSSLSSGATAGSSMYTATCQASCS

Assays:
[1] = biological target: T1, human glucagon receptor (Homo sapiens, UniProt P47871); assay: DiscoveRx LeadHunter cellular assay, cAMP stimulation, glucagon receptor in CHO cells; format: cell-based; details: read-out: EC50 cAMP Glucagon R
T1 construct: host or cells: CHO cells

[2] = biological target: T2, human GLP-1 receptor (Homo sapiens, UniProt P43220); assay: DiscoveRx LeadHunter cellular assay, cAMP stimulation, GLP-1 receptor in CHO cells; format: cell-based; details: read-out: EC50 cAMP GLP-1 R; human GLP-1 receptor in CHO cells (DiscoveRx)
T2 construct: host or cells: CHO cells

Structure (SMILES) | EC50 [1] [nM] | EC50 [2] [nM]
CCCCCCCCCCCCO[C@@H]1O[C@H](CO[C@H]2O[C@H](C(=O)NCCCC[C@H](NC(=O)[C@@H](NC(=O)[C@H](Cc3ccccc3)NC(=O)[C@H](CCC(=O)O)NC(=O)[C@@H]3CCCCNC(=O)CC[C@H](NC(=O)[C@H](CC(=O)O)NC(=O)[C@H](CC(C)C)NC(=O)[C@H](Cc4ccc(O)cc4)NC(=O)[C@H](CCCCN)NC(=O)[C@H](CO)NC(=O)[C@H](Cc4ccc(O)cc4)NC(=O)[C@H](CC(=O)O)NC(=O)[C@H](CO)NC(=O)[C@@H](NC(=O)[C@H](Cc4ccccc4)NC(=O)[C@@H](NC(=O)CNC(=O)[C@H](CCC(N)=O)NC(=O)C(C)(C)NC(=O)[C@@H](N)Cc4c[nH]cn4)[C@@H](C)O)[C@@H](C)O)C(=O)N[C@@H](CCC(N)=O)C(=O)N[C@@H](C)C(=O)N[C@@H](C)C(=O)N3)[C@@H](C)CC)C(=O)N[C@@H](Cc3c[nH]c4ccccc34)C(=O)N[C@@H](CC(C)C)C(=O)N[C@@H](CC(C)C)C(=O)N[C@@H](CCC(N)=O)C(=O)N[C@H](C(=O)NCCOCCOCCOCCOCCC(=O)O)[C@@H](C)O)[C@H](O)[C@H](O)[C@H]2O)[C@@H](O)[C@H](O)[C@H]1O [EU-A1639] | 2.29 | 0.385
CCCCCCCCCCCCO[C@@H]1O[C@H](CO[C@H]2O[C@H](C(=O)NCCCC[C@H](NC(=O)[C@@H](NC(=O)[C@H](Cc3ccccc3)NC(=O)[C@H](CCC(=O)O)NC(=O)[C@@H]3CCCCNC(=O)CC[C@H](NC(=O)[C@H](CC(=O)O)NC(=O)[C@H](CC(C)C)NC(=O)[C@H](Cc4ccc(O)cc4)NC(=O)[C@H](CCCCN)NC(=O)[C@H](CO)NC(=O)[C@H](Cc4ccc(O)cc4)NC(=O)[C@H](CC(=O)O)NC(=O)[C@H](CO)NC(=O)[C@@H](NC(=O)[C@H](Cc4ccccc4)NC(=O)[C@@H](NC(=O)CNC(=O)[C@H](CCC(N)=O)NC(=O)C(C)(C)NC(=O)[C@@H](N)Cc4c[nH]cn4)[C@@H](C)O)[C@@H](C)O)C(=O)N[C@@H](CCC(N)=O)C(=O)N[C@@H](C)C(=O)N[C@@H](C)C(=O)N3)[C@@H](C)CC)C(=O)N[C@@H](Cc3c[nH]c4ccccc34)C(=O)N[C@@H](CC(C)C)C(=O)N[C@@H](CC(C)C)C(=O)N[C@@H](CCC(N)=O)C(=O)N[C@H](C(=O)NCCOCCOCCOCCOCCOCCOCCOCCOCCC(=O)O)[C@@H](C)O)[C@H](O)[C@H](O)[C@H]2O)[C@@H](O)[C@H](O)[C@H]1O [EU-A1651] | 0.149 | 0.033
